In series [1] the test system is HLA molecules of primary tumor and normal tissue samples (cancer entities). Nature of the series: Identification and label-free LC-MS quantitation of HLA-presented tumor-associated peptides on tissue samples. More on the design: species or system human. Particulars: cancer entities on whose tumor tissue samples the HLA-presented peptide was found (LC-MS); abbreviations in the footnotes of Table 8a.

In series [2] the test system is source gene exon mRNA in tumor and normal tissue samples. The experiment in a line: Expression profiling (RNAseq) of genes encoding the peptides, tumor versus normal tissues. Particulars: RNAseq, Table 9a; for Exon Expression in tumor types vs normal tissue panel: over-expressed (+): tumor types in which the peptide's exon is over-expressed (+) vs panel of normal tissues; for Exon Expression in tumor types vs normal tissue panel: highly over-expressed (++): tumor types in which the peptide's exon is highly over-expressed (++) vs panel of normal tissues; for Exon Expression in tumor types vs normal tissue panel: very highly over-expressed (+++): tumor types in which the peptide's exon is very highly over-expressed (+++) vs panel of normal tissues. More on the design: species or system human.

For part of these data: Expression grades refer to the transcript from which the peptide derives; gene names, where given, were looked up from the sequence.

Consider “333: peptide found in MYO3B (gene looked up) (RYADLLIYTY; listed as Homo sapiens) [compound 333]”, for which the “Peptide Presentation on cancer entities” value in series [1] was “UEC”. In addition, in series [2], the “Exon Expression in tumor types vs normal tissue panel: over-expressed (+)” value is reported as “HNSCC, OC, UBC, UEC”.
Consider “204: peptide found in MMP16 (gene looked up) (WQNVTPLTF; listed as Homo sapiens) [compound 204]”, for which the “Peptide Presentation on cancer entities” value in series [1] is given as “NSCLCsquam”. For the same substance, in series [2], the “Exon Expression in tumor types vs normal tissue panel: highly over-expressed (++)” value is reported as “GBM, MEL” and the “Exon Expression in tumor types vs normal tissue panel: over-expressed (+)” value is “BRCA”.
For the substance “309: peptide found in TAS2R38 (gene looked up) (AFISVPLLI; listed as Homo sapiens) [compound 309]”, in series [1], the “Peptide Presentation on cancer entities” value is given as “NSCLCadeno, NSCLCother”. In series [2], the “Exon Expression in tumor types vs normal tissue panel: highly over-expressed (++)” value is “CRC” and the “Exon Expression in tumor types vs normal tissue panel: over-expressed (+)” value is “GBC, GC, PACA, UBC”.
Take “58: peptide found in F5 (gene looked up) (IYYSHENLI; listed as Homo sapiens) [compound 58]”: in series [1], the “Peptide Presentation on cancer entities” value is listed as “CCC, CRC, GC, HCC, NSCLCadeno, NSCLCsquam, OC, PRCA”. Further, in series [2], the “Exon Expression in tumor types vs normal tissue panel: highly over-expressed (++)” value is “HCC” and the “Exon Expression in tumor types vs normal tissue panel: over-expressed (+)” value is recorded as “CCC”.
Regarding “152: peptide found in MMP13 (gene looked up) (MHPGVLAAFLF; listed as Homo sapiens) [compound 152]”, the “Peptide Presentation on cancer entities” value in series [1] is given as “NSCLCadeno”. In addition, in series [2], the “Exon Expression in tumor types vs normal tissue panel: highly over-expressed (++)” value was “HNSCC, NSCLCsquam, OSCAR” and the “Exon Expression in tumor types vs normal tissue panel: over-expressed (+)” value was “NSCLCadeno, UBC”.
With “178: peptide found in FLT3 (gene looked up) (AYPQIRCTW; listed as Homo sapiens) [compound 178]”, in series [1], the “Peptide Presentation on cancer entities” value is reported as “AML”. For the same substance, in series [2], the “Exon Expression in tumor types vs normal tissue panel: highly over-expressed (++)” value is reported as “AML”.
In the case of “303: peptide found in ADAMTS12 (gene looked up) (RFLDRGWGF; listed as Homo sapiens) [compound 303]”, the “Peptide Presentation on cancer entities” value in series [1] is on record as “CRC”. In series [2], the “Exon Expression in tumor types vs normal tissue panel: highly over-expressed (++)” value is “CCC” and the “Exon Expression in tumor types vs normal tissue panel: over-expressed (+)” value is on record as “BRCA, CRC, GBC, GC, HNSCC, NSCLCadeno, NSCLCother, NSCLCsquam, OSCAR, PACA, UBC”.
With “26: peptide found in MMP12 (gene looked up) (TYFFVDNQYW; listed as Homo sapiens) [compound 26]”, the “Peptide Presentation on cancer entities” value in series [1] is recorded as “NSCLCsquam, OSCAR”. In series [2], the “Exon Expression in tumor types vs normal tissue panel: highly over-expressed (++)” value was “CCC, CRC, GBC, GC, HNSCC, MEL, NSCLCadeno, OC, OSCAR, PACA, SCLC, UBC, UEC”; the “Exon Expression in tumor types vs normal tissue panel: over-expressed (+)” value was “HCC, NHL, RCC”; the “Exon Expression in tumor types vs normal tissue panel: very highly over-expressed (+++)” value was “NSCLCother, NSCLCsquam”.
With “263: peptide found in SCN3A (gene looked up) (AYVTEFVSL; listed as Homo sapiens) [compound 263]”, the “Peptide Presentation on cancer entities” value in series [1] is “BRCA, GBC”. Moreover, the “Exon Expression in tumor types vs normal tissue panel: highly over-expressed (++)” value in series [2] is listed as “SCLC”.
Consider “67: peptide found in PTPRZ1 (gene looked up) (SYVLQIVAI; listed as Homo sapiens) [compound 67]”, for which, in series [1], the “Peptide Presentation on cancer entities” value is “GBM, MEL”. For the same substance, in series [2], the “Exon Expression in tumor types vs normal tissue panel: highly over-expressed (++)” value was “GBM”.
Consider “318: peptide found in FERMT1 (gene looked up) (VQADAKLLF; listed as Homo sapiens) [compound 318]”, for which the “Peptide Presentation on cancer entities” value in series [1] is reported as “GC, NSCLCadeno, UBC”. In addition, in series [2], the “Exon Expression in tumor types vs normal tissue panel: highly over-expressed (++)” value is on record as “CRC” and the “Exon Expression in tumor types vs normal tissue panel: over-expressed (+)” value is reported as “GO, HNSCC, NSCLCsquam, OSCAR, UBC”.
In the case of “279: peptide found in MMP20 (gene looked up) (KYKNPYGF; listed as Homo sapiens) [compound 279]”, the “Peptide Presentation on cancer entities” value in series [1] is reported as “HCC”. Further, in series [2], the “Exon Expression in tumor types vs normal tissue panel: highly over-expressed (++)” value was “NSCLCsquam” and the “Exon Expression in tumor types vs normal tissue panel: over-expressed (+)” value is recorded as “BRCA, CRC, GC, HNSCC, NHL, NSCLCother, OC, OSCAR, SCLC, UEC”.
For “214: peptide found in HTR7 (gene looked up) (YIPMSVMLF; listed as Homo sapiens) [compound 214]”, the “Peptide Presentation on cancer entities” value in series [1] is on record as “NSCLCadeno”. Also, in series [2], the “Exon Expression in tumor types vs normal tissue panel: highly over-expressed (++)” value is “HNSCC, UBC” and the “Exon Expression in tumor types vs normal tissue panel: over-expressed (+)” value is given as “AML, NSCLCsquam, OSCAR”.
The matching figures for “39: peptide found in ENPP3 (gene looked up) (KTYLPTFETTI; listed as Homo sapiens) [compound 39]”: “UEC”, “RCC” and “UEC”.
Regarding “293: peptide found in SLC7A11 (gene looked up) (MYAYAGWFY; listed as Homo sapiens) [compound 293]”, in series [1], the “Peptide Presentation on cancer entities” value is “CRC”. In series [2], the “Exon Expression in tumor types vs normal tissue panel: highly over-expressed (++)” value is “NSCLCsquam” and the “Exon Expression in tumor types vs normal tissue panel: over-expressed (+)” value is reported as “HNSCC, NSCLCadeno, OSCAR”.
For “203: peptide found in PTPRZ1 (gene looked up) (VYPSESTVM; listed as Homo sapiens) [compound 203]”, the “Peptide Presentation on cancer entities” value in series [1] is given as “GBM”. Moreover, the “Exon Expression in tumor types vs normal tissue panel: highly over-expressed (++)” value in series [2] was “GBM”.
Turning to “124: peptide found in MMP13 (gene looked up) (EYNVFPRTL; listed as Homo sapiens) [compound 124]”, the “Peptide Presentation on cancer entities” value in series [1] was “CRC, GC, NSCLCadeno, NSCLCsquam”. For the same substance, in series [2], the “Exon Expression in tumor types vs normal tissue panel: highly over-expressed (++)” value was “HNSCC, NSCLCsquam, OSCAR” and the “Exon Expression in tumor types vs normal tissue panel: over-expressed (+)” value is on record as “NSCLCadeno, UBC”.
With “120: peptide found in QRFPR (gene looked up) (VYAFMNENF; listed as Homo sapiens) [compound 120]”, in series [1], the “Peptide Presentation on cancer entities” value was “RCC”. In addition, in series [2], the “Exon Expression in tumor types vs normal tissue panel: highly over-expressed (++)” value is on record as “RCC” and the “Exon Expression in tumor types vs normal tissue panel: over-expressed (+)” value is given as “NSCLCsquam, OSCAR”.
As for “300: peptide found in CXCR3 (gene looked up) (LFALPDFIF; listed as Homo sapiens) [compound 300]”, in series [1], the “Peptide Presentation on cancer entities” value was “NSCLCadeno”. Moreover, the “Exon Expression in tumor types vs normal tissue panel: highly over-expressed (++)” value in series [2] is “CLL”.
For “16: peptide found in TRPM8 (gene looked up) (GYFLAQYLM; listed as Homo sapiens) [compound 16]”, in series [1], the “Peptide Presentation on cancer entities” value is listed as “RCC”. Moreover, in series [2], the “Exon Expression in tumor types vs normal tissue panel: over-expressed (+)” value is on record as “GBM, MEL” and the “Exon Expression in tumor types vs normal tissue panel: very highly over-expressed (+++)” value is listed as “PRCA”.
As to “96: peptide found in OR51E2 (gene looked up) (SHIGVVLAF; listed as Homo sapiens) [compound 96]”, the “Peptide Presentation on cancer entities” value in series [1] is “PRCA”. The “Exon Expression in tumor types vs normal tissue panel: very highly over-expressed (+++)” value in series [2] is “PRCA”.

For the origin of these results see patent US12060400B2, “Peptides for use in immunotherapy against cancers” (Immatics Biotechnologies GmbH, priority 2018, dated 2024).
